Protein sequences, listed by entry. Tags and fused reporters are not part of them.
UniProt O95817: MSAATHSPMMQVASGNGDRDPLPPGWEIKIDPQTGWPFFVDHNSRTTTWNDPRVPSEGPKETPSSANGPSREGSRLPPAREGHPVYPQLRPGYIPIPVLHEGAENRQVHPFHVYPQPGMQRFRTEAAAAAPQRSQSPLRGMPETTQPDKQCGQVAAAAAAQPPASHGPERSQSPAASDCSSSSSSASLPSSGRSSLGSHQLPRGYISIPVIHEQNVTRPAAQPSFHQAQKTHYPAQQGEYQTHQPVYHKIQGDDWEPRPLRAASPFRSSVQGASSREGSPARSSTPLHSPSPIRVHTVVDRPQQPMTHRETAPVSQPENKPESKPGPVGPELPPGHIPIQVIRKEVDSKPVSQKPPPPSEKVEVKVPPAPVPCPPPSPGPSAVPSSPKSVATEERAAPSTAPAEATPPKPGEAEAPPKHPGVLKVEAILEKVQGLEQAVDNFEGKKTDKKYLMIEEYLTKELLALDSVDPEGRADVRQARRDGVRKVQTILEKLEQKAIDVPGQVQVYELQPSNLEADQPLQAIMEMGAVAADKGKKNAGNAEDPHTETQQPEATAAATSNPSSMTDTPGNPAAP
UniProt P35579: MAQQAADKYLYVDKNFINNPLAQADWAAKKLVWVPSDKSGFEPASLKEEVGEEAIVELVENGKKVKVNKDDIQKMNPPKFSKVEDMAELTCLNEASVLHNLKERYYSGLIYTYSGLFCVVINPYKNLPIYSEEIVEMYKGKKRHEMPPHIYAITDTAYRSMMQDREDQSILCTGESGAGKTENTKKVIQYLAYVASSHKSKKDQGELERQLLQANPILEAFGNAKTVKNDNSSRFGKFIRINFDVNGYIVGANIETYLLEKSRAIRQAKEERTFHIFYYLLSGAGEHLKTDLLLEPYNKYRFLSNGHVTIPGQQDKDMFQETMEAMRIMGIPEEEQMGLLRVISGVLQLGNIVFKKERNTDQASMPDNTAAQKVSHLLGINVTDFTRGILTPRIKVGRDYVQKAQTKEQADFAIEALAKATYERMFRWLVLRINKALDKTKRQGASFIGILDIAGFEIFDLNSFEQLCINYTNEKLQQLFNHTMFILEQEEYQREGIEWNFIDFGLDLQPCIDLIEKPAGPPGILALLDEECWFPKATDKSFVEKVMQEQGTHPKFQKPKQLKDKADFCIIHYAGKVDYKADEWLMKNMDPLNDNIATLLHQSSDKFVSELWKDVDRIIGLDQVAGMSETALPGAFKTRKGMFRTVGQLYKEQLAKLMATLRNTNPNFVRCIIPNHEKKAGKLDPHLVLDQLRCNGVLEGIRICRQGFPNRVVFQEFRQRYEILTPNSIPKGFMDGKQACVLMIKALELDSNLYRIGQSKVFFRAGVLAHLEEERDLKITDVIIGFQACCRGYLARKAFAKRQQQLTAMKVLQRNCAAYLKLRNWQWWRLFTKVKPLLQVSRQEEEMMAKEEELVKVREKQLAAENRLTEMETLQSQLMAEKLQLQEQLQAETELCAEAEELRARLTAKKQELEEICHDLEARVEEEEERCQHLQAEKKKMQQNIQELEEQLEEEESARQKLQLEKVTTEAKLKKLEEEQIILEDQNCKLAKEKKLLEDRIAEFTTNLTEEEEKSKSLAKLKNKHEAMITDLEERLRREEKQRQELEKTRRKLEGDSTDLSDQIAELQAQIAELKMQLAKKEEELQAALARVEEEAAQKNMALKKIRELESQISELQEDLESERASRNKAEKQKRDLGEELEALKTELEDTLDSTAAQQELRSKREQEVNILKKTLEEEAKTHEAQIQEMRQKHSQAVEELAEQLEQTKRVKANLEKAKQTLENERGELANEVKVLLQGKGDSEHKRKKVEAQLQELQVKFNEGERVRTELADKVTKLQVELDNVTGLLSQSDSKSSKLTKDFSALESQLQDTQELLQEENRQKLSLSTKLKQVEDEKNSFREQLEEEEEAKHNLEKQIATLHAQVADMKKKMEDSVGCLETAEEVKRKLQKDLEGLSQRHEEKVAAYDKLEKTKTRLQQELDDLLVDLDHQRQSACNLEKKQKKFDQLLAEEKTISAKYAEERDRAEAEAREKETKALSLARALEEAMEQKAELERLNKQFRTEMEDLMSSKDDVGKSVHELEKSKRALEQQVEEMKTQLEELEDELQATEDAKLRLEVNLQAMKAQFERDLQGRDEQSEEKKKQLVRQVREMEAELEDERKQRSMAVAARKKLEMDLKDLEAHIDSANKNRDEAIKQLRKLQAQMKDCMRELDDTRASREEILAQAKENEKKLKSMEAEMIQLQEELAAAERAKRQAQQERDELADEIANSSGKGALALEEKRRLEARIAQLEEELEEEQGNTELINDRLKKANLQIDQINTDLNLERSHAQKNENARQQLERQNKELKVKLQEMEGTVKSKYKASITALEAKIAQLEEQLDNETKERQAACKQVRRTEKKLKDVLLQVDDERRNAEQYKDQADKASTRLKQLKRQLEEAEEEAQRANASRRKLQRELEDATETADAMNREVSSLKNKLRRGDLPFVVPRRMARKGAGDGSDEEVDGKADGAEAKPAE
UniProt P36405: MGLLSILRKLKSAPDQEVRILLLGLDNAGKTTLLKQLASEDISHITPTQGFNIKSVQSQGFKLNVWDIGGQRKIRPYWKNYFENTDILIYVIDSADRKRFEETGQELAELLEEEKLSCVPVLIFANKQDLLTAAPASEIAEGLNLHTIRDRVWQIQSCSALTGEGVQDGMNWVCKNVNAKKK
UniProt P08670: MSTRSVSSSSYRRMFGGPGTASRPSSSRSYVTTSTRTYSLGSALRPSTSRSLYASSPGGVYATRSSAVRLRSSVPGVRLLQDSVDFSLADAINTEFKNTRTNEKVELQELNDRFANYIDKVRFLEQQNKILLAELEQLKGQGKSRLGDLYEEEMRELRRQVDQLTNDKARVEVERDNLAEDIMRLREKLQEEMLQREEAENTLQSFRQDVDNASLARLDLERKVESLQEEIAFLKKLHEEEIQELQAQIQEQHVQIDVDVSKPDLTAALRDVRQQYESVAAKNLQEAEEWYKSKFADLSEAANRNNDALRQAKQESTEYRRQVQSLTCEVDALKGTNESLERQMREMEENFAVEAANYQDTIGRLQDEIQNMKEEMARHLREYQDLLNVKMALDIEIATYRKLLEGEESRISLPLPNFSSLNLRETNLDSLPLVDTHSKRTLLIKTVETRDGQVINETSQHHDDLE
UniProt P48431: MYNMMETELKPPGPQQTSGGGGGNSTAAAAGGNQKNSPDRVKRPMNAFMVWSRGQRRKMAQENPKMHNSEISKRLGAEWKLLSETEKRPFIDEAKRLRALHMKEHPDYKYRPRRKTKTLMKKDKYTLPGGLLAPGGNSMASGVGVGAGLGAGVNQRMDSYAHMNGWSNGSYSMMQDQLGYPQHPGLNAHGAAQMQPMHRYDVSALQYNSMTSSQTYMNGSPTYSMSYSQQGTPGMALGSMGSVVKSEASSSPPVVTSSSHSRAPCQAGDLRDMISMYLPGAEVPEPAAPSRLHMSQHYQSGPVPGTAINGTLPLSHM
UniProt P48681: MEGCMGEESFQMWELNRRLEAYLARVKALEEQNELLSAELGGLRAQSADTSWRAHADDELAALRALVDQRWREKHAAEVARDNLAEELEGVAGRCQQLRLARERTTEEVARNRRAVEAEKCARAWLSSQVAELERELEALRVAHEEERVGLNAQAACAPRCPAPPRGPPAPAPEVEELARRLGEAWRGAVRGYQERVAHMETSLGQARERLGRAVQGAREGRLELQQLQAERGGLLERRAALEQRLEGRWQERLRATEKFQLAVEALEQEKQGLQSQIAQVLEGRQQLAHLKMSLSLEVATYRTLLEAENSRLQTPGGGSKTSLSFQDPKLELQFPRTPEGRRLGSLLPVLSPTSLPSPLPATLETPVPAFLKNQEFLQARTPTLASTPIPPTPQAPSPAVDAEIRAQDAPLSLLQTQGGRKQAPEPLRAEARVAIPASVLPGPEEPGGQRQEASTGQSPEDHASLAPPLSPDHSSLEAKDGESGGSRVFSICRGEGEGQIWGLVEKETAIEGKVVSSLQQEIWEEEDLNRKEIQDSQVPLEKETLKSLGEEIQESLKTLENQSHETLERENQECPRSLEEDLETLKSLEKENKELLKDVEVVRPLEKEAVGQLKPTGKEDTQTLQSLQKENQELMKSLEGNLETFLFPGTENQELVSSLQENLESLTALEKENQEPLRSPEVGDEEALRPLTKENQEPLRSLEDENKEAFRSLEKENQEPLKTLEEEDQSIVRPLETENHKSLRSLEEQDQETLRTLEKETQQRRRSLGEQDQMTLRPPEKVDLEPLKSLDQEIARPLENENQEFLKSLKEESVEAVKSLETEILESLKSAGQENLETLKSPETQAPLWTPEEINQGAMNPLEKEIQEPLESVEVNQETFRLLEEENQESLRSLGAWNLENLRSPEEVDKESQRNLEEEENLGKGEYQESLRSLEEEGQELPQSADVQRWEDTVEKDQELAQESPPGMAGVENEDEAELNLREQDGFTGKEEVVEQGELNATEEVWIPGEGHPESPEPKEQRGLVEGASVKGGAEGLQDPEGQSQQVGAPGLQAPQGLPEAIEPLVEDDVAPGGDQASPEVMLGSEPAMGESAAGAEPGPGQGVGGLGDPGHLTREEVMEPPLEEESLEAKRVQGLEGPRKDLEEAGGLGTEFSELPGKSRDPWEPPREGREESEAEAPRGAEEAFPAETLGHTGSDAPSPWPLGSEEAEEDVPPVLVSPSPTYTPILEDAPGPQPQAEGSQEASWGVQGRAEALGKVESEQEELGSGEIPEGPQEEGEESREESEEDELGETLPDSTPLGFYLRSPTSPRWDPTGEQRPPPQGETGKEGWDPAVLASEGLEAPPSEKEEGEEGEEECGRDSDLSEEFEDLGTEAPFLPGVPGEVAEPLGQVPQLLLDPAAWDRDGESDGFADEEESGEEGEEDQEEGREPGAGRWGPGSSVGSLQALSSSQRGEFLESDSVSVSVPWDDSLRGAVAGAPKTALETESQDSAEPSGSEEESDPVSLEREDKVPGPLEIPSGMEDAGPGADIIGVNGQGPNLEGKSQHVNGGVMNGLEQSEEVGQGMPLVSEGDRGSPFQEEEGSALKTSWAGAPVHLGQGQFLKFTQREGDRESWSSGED

In paper PMC11627473:

B1: heat shock protein family B Member 8 (HSPB8) (protein, UniProt Q9UJY1 1-196)
chain: MADGQMPFSCHYPSRLRRDPFRDSPLSSRLLDDGFGMDPFPDDLTASWPDWALPRLSSAWPGTLRSGMVPRGPTATARFGVPAEGRTPPPFPGEPWKVCVNVHSFKPEELMVKTKDGYVEVSGKHEEKQQEGGIVSKNFTKKIQLPAEVDPVTVFASLSPEGLLIIEAPQVPPYSTFGESSFNNELPQDSQEVTCT

Biological target: full‐length (FL) BAG3 (BCL2‐associated athanogenic protein 3), FLAG‐tagged (UniProt O95817)
Test: affinity purification with mass spectrometry; FLAG‐Trap (DYKDDDDK Fab‐Trap) agarose pull‐down of FLAG‐tagged FL BAG3 from lysates (modified RIPA buffer, diluted) of U251 BAG3‐KO cells, cultured adherent (DMEM) or as spheres (Neurobasal‐A) for 72 h; 1 h at 4°C; compared with empty vector; label‐free LC–MS, triplicates; cut‐off Log2FC >1, −log10 p‐value >1.3

binding, binds:
B1

Biological target: full‐length (FL) BAG3 (BCL2‐associated athanogenic protein 3), FLAG‐tagged (UniProt O95817)
Test: as above
Remark: another data set of the same source

binding, binds:
Myosin heavy chain 9 (MYH9) (from UniProt P35579 1-1960), ADP‐ribosylation factor‐like protein 3 (ARL3) (from UniProt P36405 1-182), Vimentin (VIM) (from UniProt P08670 1-466), sex‐determining region Y‐Box 2 (SOX2) (from UniProt P48431 1-317), Nestin (NES) (from UniProt P48681 1-1621)

Results are given in words; binding and its absence hold for the method and conditions named. In cells and extracts the contact can be indirect. These calls come from enrichment with a bait or labelling near it, and not all partners need be listed.
